# Source: publication PMC12620962
# Results are given in words; binding and its absence hold for the method and conditions named. In cells and extracts the contact can be indirect.
# T1: phosphodiesterase 3A (PDE3A), endogenous in HEL cells (human (endogenous in HEL)), Q14432
# T1 chain: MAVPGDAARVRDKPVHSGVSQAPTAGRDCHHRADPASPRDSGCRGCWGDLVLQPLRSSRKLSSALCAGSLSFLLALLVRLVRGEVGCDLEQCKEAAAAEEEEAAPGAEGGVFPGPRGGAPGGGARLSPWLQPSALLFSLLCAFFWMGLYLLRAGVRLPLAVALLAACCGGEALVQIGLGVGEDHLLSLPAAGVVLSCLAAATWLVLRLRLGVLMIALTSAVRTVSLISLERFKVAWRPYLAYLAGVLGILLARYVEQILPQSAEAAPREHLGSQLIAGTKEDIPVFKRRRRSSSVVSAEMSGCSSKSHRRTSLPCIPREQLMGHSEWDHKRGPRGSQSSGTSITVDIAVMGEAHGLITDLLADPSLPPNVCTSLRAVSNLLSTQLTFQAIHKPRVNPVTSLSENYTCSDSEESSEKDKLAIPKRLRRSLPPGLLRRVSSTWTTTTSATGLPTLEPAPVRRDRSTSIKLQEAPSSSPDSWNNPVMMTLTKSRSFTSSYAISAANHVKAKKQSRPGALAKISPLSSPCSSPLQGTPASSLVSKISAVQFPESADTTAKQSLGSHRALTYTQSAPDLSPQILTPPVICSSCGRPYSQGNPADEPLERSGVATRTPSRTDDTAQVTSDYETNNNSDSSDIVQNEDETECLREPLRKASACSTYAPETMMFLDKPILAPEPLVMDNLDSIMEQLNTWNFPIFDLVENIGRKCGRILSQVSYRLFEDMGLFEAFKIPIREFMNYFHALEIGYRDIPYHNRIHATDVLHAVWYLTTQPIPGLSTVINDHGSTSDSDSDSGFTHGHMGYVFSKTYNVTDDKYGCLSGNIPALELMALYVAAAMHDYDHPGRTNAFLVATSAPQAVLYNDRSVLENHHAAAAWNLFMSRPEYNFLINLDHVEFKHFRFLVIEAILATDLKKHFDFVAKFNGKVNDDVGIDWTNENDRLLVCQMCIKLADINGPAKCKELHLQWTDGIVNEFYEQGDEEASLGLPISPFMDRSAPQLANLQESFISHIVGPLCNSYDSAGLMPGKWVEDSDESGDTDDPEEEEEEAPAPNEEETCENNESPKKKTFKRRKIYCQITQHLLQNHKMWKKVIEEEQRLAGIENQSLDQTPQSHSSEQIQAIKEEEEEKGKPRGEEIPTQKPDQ
# Target: T1, phosphodiesterase 3A (PDE3A), …
# Experiment: co-IP; HEL cells treated with DMSO or BAY 2666605 (1 or 10 umol/L) for 24 hours; lysates incubated overnight at 4°C with anti-PDE3A rabbit polyclonal antibody or rabbit IgG control, Protein G Sepharose, four washes with NP-40 lysis buffer; immunoblot for SLFN12, PDE3A, then reprobed for PDE3B
# Conditions: remark: other sources report otherwise
binder,measurement,value
"phosphodiesterase 3B (PDE3B), endogenous in HEL cells, Q13370 1-1112 (enzyme) MRRDERDAKAMRSLQPPDGAGSPPESLRNGYVKSCVSPLRQDPPRGFFFHLCRFCNVELRPPPASPQQPRRCSPFCRARLSLGALAAFVLALLLGAEPESWAAGAAWLRTLLSVCSHSLSPLFSIACAFFFLTCFLTRTKRGPGPGRSCGSWWLLALPACCYLGDFLVWQWWSWPWGDGDAGSAAPHTPPEAAAGRLLLVLSCVGLLLTLAHPLRLRHCVLVLLLASFVWWVSFTSLGSLPSALRPLLSGLVGGAGCLLALGLDHFFQIREAPLHPRLSSAAEEKVPVIRPRRRSSCVSLGETAASYYGSCKIFRRPSLPCISREQMILWDWDLKQWYKPHYQNSGGGNGVDLSVLNEARNMVSDLLTDPSLPPQVISSLRSISSLMGAFSGSCRPKINPLTPFPGFYPCSEIEDPAEKGDRKLNKGLNRNSLPTPQLRRSSGTSGLLPVEQSSRWDRNNGKRPHQEFGISSQGCYLNGPFNSNLLTIPKQRSSSVSLTHHVGLRRAGVLSSLSPVNSSNHGPVSTGSLTNRSPIEFPDTADFLNKPSVILQRSLGNAPNTPDFYQQLRNSDSNLCNSCGHQMLKYVSTSESDGTDCCSGKSGEEENIFSKESFKLMETQQEEETEKKDSRKLFQEGDKWLTEEAQSEQQTNIEQEVSLDLILVEEYDSLIEKMSNWNFPIFELVEKMGEKSGRILSQVMYTLFQDTGLLEIFKIPTQQFMNYFRALENGYRDIPYHNRIHATDVLHAVWYLTTRPVPGLQQIHNGCGTGNETDSDGRINHGRIAYISSKSCSNPDESYGCLSSNIPALELMALYVAAAMHDYDHPGRTNAFLVATNAPQAVLYNDRSVLENHHAASAWNLYLSRPEYNFLLHLDHVEFKRFRFLVIEAILATDLKKHFDFLAEFNAKANDVNSNGIEWSNENDRLLVCQVCIKLADINGPAKVRDLHLKWTEGIVNEFYEQGDEEANLGLPISPFMDRSSPQLAKLQESFITHIVGPLCNSYDAAGLLPGQWLEAEEDNDTESGDDEDGEELDTEDEEMENNLNPKPPRRKSRRRIFCQLMHHLTENHKIWKEIVEEEEKCKADGNKLQVENSSLPQADEIQVIEEADEEE",binding,no binding
